According to patent publication US20260034227A1, “AZLACTONE-BASED POLYMERS AS A SCAFFOLD FOR DIVERSE APPLICATIONS IN DRUG AND GENE DELIVERY” (University of Mississippi, priority 2022, published 2026):
At least one read-out could not be matched to a standard name with certainty.

Test: Pharmacokinetics of DBAC generated from polymer-drug conjugate (UPLC-MS/MS)
Assay type: in vivo, CD-1 mice
Conditions: oral 10 mg/kg conjugate, CD1 mice
Experimental: UPLC-MS/MS. Chromatography was performed on an AcquityTM UPLC system (Waters Corp, Milford, MA) with an autosampler temperature at 10° C. Waters Acquity UPLC® BEH Phenyl column (3.0×50 mm, 1.7 μm particle size) was used for chromatographic separation with linear gradient elution consisting of (A) 90% acetonitrile and (B) 10% of 0.2% formic acid in Milli-Q water as mobile phases. The flow rate was set at 0.30 mL/min, and the injection volume was 2 μL. An Acquity Tandem Quadrupole Mass Detector (Xevo TQ-S; Waters Corp, Milford, MA) in positive electrospray ionization mode was used for mass spectrometric detection. For collision-induced dissociation, argon was used as collision gas. The cone voltage and collision energy were set at 40 V and 24 V for DBAC and 40 V and 26 V for the tolbutamide (IS), respectively. Quantification was performed using the monitoring of multiple reaction monitoring (MRM) of following transitions: m/z 276/186 for DBAC and m/z 271/90.9 for IS. […] Pharmacokinetics of […]. All procedures were performed in compliance with the University of Mississippi Animal Care and Use Committee and following the National Institutes of Health (NIH) guidelines. […] Either DBAC or […] were administered at 10 mg/kg through oral gavage or retro-orbital IV injection at a volume of 0.1 mL. The vehicle for DBAC was 10% absolute alcohol, 10% cremophor and 80% Milli-Q water, whereas the […] polymer was administered in 100% PBS. […] Blood was collected by cardiac puncture and stored in K2 EDTA tubes (SAI Infusion Technologies, #MVCB-E-300). Mice were then perfused through heart with PBS (Life Technologies, #10-010-072). Plasma was harvested by centrifuging the blood using Eppendorf […] Centrifuge (Germany) at 5,000 rpm for 5 min and stored frozen at -80±10° C. until analysis. […] Sample preparation for DBAC detection. A simple protein precipitation method was followed for extraction of DBAC from mice plasma. To an aliquot of 50 μL of plasma or tissue (GI tract, heart, lung, spleen, liver or kidney) samples, tolbutamide (internal standard, IS) solution (5 μL of 20 ng/ml) was added and mixed for 15 s on a cyclomixer (Thermo Scientific, IN, USA). After precipitation with 500 μL of acetonitrile, the mixture was vortexed for 2 min, followed by centrifugation for 10 min at 14,000 rpm on an accuSpin Micro 17R (Fisher Scientific, USA) at 5° C. An aliquot of 150 μL of clear supernatant was transferred into vials and 2 μL was injected into the UPLC-MS/MS system for analysis. The primary stock solutions of DBAC and tolbutamide (IS) were prepared in methanol at 1.0 mg/mL concentration. Working solutions of calibration standards and quality control (QC) samples were prepared by dilution with methanol and stored at -20° C. A working stock of the IS solution (20 ng/ml) was prepared in methanol and stored at -20° C.

N-(2-hydroxyethyl)-N,N-dimethyl-2-oxo-2-(2-oxo-2H-chromen-3-yl)ethanaminium [DBAC]
Cmax (GI tract): 21079 ± 1102 ng/g | Cmax (Heart): 617 ± 85.6 ng/g | Cmax (Kidney): 477 ± 58.2 ng/g | Cmax (Liver): 1357 ± 253 ng/g | Cmax (Lung): 1955 ± 258 ng/g
